Results of single-concentration screens

Amino acid sequences for entries named in this document (tags omitted). Residues count along the entry.
UniProt A4I591, 1-473: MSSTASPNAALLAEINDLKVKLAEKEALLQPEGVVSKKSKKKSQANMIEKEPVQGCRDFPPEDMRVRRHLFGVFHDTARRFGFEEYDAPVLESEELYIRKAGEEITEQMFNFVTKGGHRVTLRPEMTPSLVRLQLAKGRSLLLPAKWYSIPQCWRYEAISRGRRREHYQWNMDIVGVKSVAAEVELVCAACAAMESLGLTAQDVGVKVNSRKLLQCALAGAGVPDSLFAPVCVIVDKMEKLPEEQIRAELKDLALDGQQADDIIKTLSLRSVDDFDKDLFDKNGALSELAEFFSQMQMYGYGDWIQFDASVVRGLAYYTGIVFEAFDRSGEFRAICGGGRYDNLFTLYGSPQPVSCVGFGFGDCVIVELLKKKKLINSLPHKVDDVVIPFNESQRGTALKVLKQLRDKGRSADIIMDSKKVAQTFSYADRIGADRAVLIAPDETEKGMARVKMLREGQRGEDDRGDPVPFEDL
UniProt Q4DA54, 1-478: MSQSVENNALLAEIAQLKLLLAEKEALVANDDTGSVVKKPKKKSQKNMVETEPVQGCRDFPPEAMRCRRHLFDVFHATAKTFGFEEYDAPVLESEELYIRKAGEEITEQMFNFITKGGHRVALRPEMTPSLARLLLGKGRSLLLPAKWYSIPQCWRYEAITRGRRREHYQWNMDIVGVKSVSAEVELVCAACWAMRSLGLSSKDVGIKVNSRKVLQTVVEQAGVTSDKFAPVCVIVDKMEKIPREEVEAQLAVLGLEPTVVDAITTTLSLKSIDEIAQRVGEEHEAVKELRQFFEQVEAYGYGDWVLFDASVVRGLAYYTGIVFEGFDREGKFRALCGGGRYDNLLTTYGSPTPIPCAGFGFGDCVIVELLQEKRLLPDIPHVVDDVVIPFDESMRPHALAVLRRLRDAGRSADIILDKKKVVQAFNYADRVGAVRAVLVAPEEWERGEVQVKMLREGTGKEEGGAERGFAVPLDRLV
UniProt Q8IDJ8, 1-583: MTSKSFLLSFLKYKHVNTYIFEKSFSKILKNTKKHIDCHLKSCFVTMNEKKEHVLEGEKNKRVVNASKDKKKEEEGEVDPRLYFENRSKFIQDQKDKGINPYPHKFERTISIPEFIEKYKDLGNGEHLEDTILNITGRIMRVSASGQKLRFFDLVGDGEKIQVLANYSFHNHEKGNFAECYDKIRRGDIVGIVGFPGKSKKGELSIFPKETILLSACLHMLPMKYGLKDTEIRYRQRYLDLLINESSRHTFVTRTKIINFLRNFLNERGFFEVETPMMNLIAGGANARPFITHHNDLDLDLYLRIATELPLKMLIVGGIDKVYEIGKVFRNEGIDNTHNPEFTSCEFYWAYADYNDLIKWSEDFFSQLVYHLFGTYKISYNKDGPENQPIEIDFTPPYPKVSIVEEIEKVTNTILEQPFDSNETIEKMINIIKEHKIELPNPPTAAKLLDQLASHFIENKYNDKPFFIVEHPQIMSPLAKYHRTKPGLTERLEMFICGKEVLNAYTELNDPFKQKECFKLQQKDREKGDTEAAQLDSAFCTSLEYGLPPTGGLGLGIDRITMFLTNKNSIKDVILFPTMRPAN

LiHisRS: 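Enzyme assay of histidyl-tRNA synthetase; the read-out is not stated. Target: Histidine-tRNA ligase, Leishmania infantum (UniProt A4I591). Tested at 30 µM. Higher reads as stronger inhibition (inferred: compounds with an IC50 in retests scored well above the rest). The assay is labelled LdHisRS but filed under L. infantum. Size under these conditions: about 69,000 compounds, about 410 of them at 50% or above in at least one test.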
TcHisRS: 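Enzyme assay of histidyl-tRNA synthetase; the read-out is not stated. Target: Histidine-tRNA ligase, Trypanosoma cruzi CL Brener (UniProt Q4DA54). Concentration: 30 µM. Higher reads as stronger inhibition (inferred: compounds with an IC50 in retests scored well above the rest). Of about 69,000 compounds tested this way, about 31 (0.045%) reached 50% or more in at least one test.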
PfKRS1: 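Lysine-tRNA ligase, Plasmodium falciparum 3D7 (UniProt Q8IDJ8). Enzyme assay of the cytosolic lysyl-tRNA synthetase in 384-well plates, read by luminescence. Concentration: 30 µM. Higher reads as stronger inhibition, judged from the few compounds that gave an IC50. About 69,000 compounds were tested under these conditions; 0.071% (about 49) showed 50% or more at least once.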
Leishmania in macrophages: 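Cell assay of Leishmania donovani living inside macrophages; the read-out is not stated. Compounds at 30 µM. The record gives no direction; compounds that gave an IC50 in retests scored well above the rest, so higher reads as stronger inhibition. About 69,000 compounds were tested under these conditions; 1.5% (about 1,000) showed 50% or more at least once.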

The filed quantity is “Percent Effect” (%). The controls that fix the scale are not given in the record; negative values are as filed. This is an unselected part of the compounds tested. Two or more numbers in one place are separate tests of the same structure; such repeats can differ widely. A dash means the value is not listed here; it may have been measured.

SMILES | LiHisRS | TcHisRS | PfKRS1 | Leishmania in macrophages
CS(=O)(=O)NC1CCCN(C(=O)NCc2cc[nH]n2)C1 (stereo unspecified) | 18.67 | -0.3774 | 0.9929 | 13.64
O=C(O)C(F)(F)F.O=C(O)C(F)(F)F.O=C(O)C(F)(F)F.[H][C@@]12C[C@@H](OCc3cccc(C)n3)CN1CCN(c1ncccn1)C2 | - | - | - | 14.1
O=C(CN1CCC(c2nnc(C(F)(F)F)o2)CC1)NCc1ccccc1 | 6.667 | 1.587 | 1.805 | -15.95
CC(C)c1nc(CNc2nccc(CCC(F)(F)F)n2)cs1 | 14.14 | 13.37 | 3.923 | 41.63
N#Cc1c(Cl)nsc1NCc1cccnc1OC1CCCC1 | 19.75 | 5.521 | 6.677 | 98.68
O=C(O)C(F)(F)F.O=C(O)C(F)(F)F.[H][C@]12CO[C@H](CN(C)Cc3ccco3)[C@@]1([H])CCN(c1cccc(C)n1)C2 | - | - | - | 13.25
COc1ccc(OC)c(NC(=O)c2nc3ccccc3n(C)c2=O)c1 | 16.5 | -1.087 | 4.398 | 27.82
CC(C)C(C)(O)CNc1cccc(F)c1C#N (stereo unspecified) | 8.571 | 2.062 | -1.081 | 16.2
COCCN1CCC(c2nc3ccc(NC(C)C)cn3n2)CC1 | 15.38 | 4.878 | 5.558 | -
CC1(Cc2ccc(Cl)cc2)Cc2cc(CCC(=O)O)ccc2O1 (stereo unspecified) | 2.878 | -6.513 | 2.677 | -1.366
O=S(=O)(NCCc1nnc2ccccn12)c1cccnc1 | 0.8403 | 1.961 | -4.649 | -15.18
CC(C(=O)Nc1cccc(N2CCCCC2)c1)n1cncn1 (stereo unspecified) | 26.19 | -2.256 | 1.806 | 9.155
CC1CCC(N2CCC(NS(=O)(=O)CCCF)CC2)CC1 (stereo unspecified) | 33.33 | 12.75 | -0.8467 | -48.92
COCC1CC2(CCN(C(=O)c3ccc(F)c(Cl)c3)CC2)CO1 (stereo unspecified) | 1.754 | 3.279 | -2.902 | 15.07
Cc1nccc(CNC(=O)CCc2c(C)nc3cc(O)nn3c2C)n1 | 13.91 | 4.598 | 0.8959 | -24.06
FC(F)c1nnc2ccc(N3CCC4(CCOC4)C3)nn12 (stereo unspecified) | 10.92 | -4.902 | 3.898 | 4.387
CSCc1noc(C2CCC(=O)N(CCCN3CCCC3=O)C2)n1 (stereo unspecified) | 4.167 | 3.352 | 3.782 | 27.85
Cc1cnc(NCC(C)(C)N2CCOCC2)nc1 | 28 | 6.024 | 1.527 | -9.351
Cc1ccsc1CN1CCc2nc3ccsc3c(=O)n2CC1 | 6 | 3.745 | -0.4336 | -
CN(CCn1cnnc1)C(=O)c1ccnc(OC2CCC2)c1 | 15.07 | 7.882 | 1.945 | 21.25
c1cnn(CCNCc2nnc(C3CC3)o2)c1 | 16.85 | 0.7519 | -1.197 | -0.9371
O=C(O)C(F)(F)F.[H][C@]12C[C@H](C(=O)NC)N(C(C)=O)[C@@]1([H])CN(Cc1c(C)noc1C)C2 | - | - | - | 1.204
CCOc1ccc(C(=O)N2CCCC(c3nccn3C)C2)cc1OCC (stereo unspecified) | 20.21 | 10.1 | -1.079 | -23.36
CC(=O)N1CCN(C(=O)CN2CCc3c(ncn3C3CC3)C2)CC1 | 21.62 | -1.88 | 6.315 | 4.078
Cn1ccnc1CN1CCC2(CC(=O)N(c3cccc(F)c3)C2)C1.O=C(O)C(F)(F)F (stereo unspecified) | - | - | - | 9.313
Cn1nnnc1SCCC(=O)NCC(C)(C)c1ccccc1F | 10.92 | 8.824 | 4.673 | 2.228
CCN(CC)CCNC(=O)c1ccn(COc2cc(C)cc(C)c2)n1 | -40.78 | 3.825 | 4.373 | 23.14
Cc1nnc(-c2cccc(C#N)c2)n1C1CCN(C(C)C)C1=O (stereo unspecified) | 10.84 | 3.483 | 6.446 | 23.08
COc1ccc(-c2cc(C3CCCNC3)ccn2)cc1.Cl (stereo unspecified) | - | - | - | 3.98
CCNc1ncc(C(=O)NCCc2ccc(C)c(C)c2)cn1 | 2.5 | 3.865 | 6.132 | 9.655
NC(=O)C1(c2cnccn2)CCCN1Cc1ccncc1 (stereo unspecified) | 12.37 | 3.333 | 2.561 | 25.97 & 2.369
Cc1nc(C)n(C2CCCN(C(=O)CCn3ccnn3)C2)n1 (stereo unspecified) | 12.94 | 4.933 | 10.63 | 21.66
Cc1ccccc1CCC1CCCN(Cc2nnc(-c3ccco3)o2)C1 (stereo unspecified) | 9.574 | 12.06 | -27.34 | 17.13
OC1(CN2CCc3nnc(Cc4cccnc4)n3CC2)CCCNC1 (stereo unspecified) | 13.92 | 5.603 | 3.091 | -0.7521
CCc1nsc(N2CCCN(C(=O)COc3ccccc3)CC2)n1 | 6.25 | 1.064 | -0.2739 | 23.12
CC(=O)N1CC[C@H]2OCC[C@@H](C(=O)NCc3ccco3)[C@H]2C1 | 8.257 | 7.563 | 6.157 | -
CCCc1nc(CN2CCOC(Cn3cccn3)C2)no1 (stereo unspecified) | 3.571 | 3.458 | 0.2671 | 13.32
CN(C)c1cccc(CNC(=O)Nc2cc(C#N)ccc2Cl)n1 | 10.96 | 0 | 3.887 | -75.56
O=C(O)C(F)(F)F.[H][C@@]12CCN(c3cccnc3)C[C@]1([H])CN(C(=O)c1ccsc1)C2 | - | - | - | 15.95
COc1ccc(C)cc1CC(=O)NS(=O)(=O)c1ccc(C(N)=O)cc1 | -1.923 | 3.429 | -0.8299 | 3.341
O=C(C[C@@H]1COC[C@H]2CN(C(=O)c3ccccn3)C[C@@H]12)N1CCCC1 | 22.34 | 9.045 | 3.109 | -
O=C(CCN1CCc2ccccc21)N1C[C@@H](O)[C@H](N2CCOCC2)C1 | 11.72 | 9.886 | 2.234 | 4.604
O=C(Cn1ccc2sccc2c1=O)NCCC1=CCCCC1 | 9.783 | 5.941 | 2.367 | 5.174
CC(C)CCNC(=O)NC(C)c1nncn1C (stereo unspecified) | 12.39 | -0.8772 | -3.692 | -52.93
CN(C)S(=O)(=O)N1C[C@@H]2CC[C@H](C1)N(Cc1ccc3[nH]ccc3c1)C2 | 16.13 | -1.02 | 4.442 | -
CNC(=O)C(C)(C)N1CCC[C@H]1C(=O)NCC(C)C.Cl | - | - | - | -6.113
Cc1nccn1CCN(C)C(=O)C1CCCN(C2CCOCC2)C1 (stereo unspecified) | 9.836 | 4 | 4.049 | -2.718
CNc1cccc(C2CCCN(C(=O)c3cncs3)C2)n1 (stereo unspecified) | 12.37 | 5.556 | 2.806 | 8.331 & 1.951
CN(Cc1csc(-c2ccccc2)n1)Cc1ncccc1C(=O)O | -4.444 | 3.03 | -5.064 | 17.97
CCN1CC(C(=O)NC(C)(C)CNC(=O)OC(C)(C)C)CC1=O (stereo unspecified) | 18.87 | 0 | 1.256 | 17.15
N#Cc1ccc(OCCCN2CCc3cncnc3C2)cc1 | 5.618 | 4.511 | 4.729 | 0.8606
Cc1nn(CC(=O)N2CCC(Nc3cccnn3)CC2)c(C)c1Cl | 10.4 | 1.901 | 4.111 | 8.503
CNC(=O)c1cc2c(nc1NCC1CC1)CCN(c1ccncn1)CC2.O=C(O)C(F)(F)F | - | - | - | 18.66
CS(=O)(=O)NC1CCCN(C(=O)COCc2ccccc2)C1 (stereo unspecified) | 9.174 | 3.529 | 0.7205 | 15.25
C=C(C)CN(CC)C(=O)c1cc(Cl)ccc1NS(C)(=O)=O | 14.52 | 1.02 | 7.771 | 16.96
CC(C)(C)c1ccc(C2(C(=O)NCCS(N)(=O)=O)CC2)cc1 | 12.26 | 0 | -0.2626 | 7.318
Cc1nccc(N(C)Cc2ncc(-c3ccccc3C(=O)O)s2)n1 | 8.451 | 9.848 | 1.797 | 21.3
CC(C)C(C)NC(=O)Nc1ccc(CS(C)(=O)=O)cc1 (stereo unspecified) | 17.14 | 3.261 | 6.93 | 26.38
COCCN1C[C@@H](C)[C@@]2(COCCN(C(=O)c3cccc(C)n3)C2)C1.O=C(O)C(F)(F)F.O=C(O)C(F)(F)F | - | - | - | 14.32
CCOc1ccc(C2CC(=O)Nc3c2c(=O)nc2sccn32)cc1 (stereo unspecified) | 13.59 | -1.639 | 0.3382 | 5.564
O=C(NCCn1ccnc1)N1CCCC1c1cccs1 (stereo unspecified) | 4.63 | 2.639 | 0.3815 | 14.66
Cc1cc(=O)n2nc(-c3cccs3)nc2n1CC(=O)NC(C)C | 21.05 | 4.878 | 2.591 | -9.008 & 17.42

Repeated from the top, 4 entries:

With CS(=O)(=O)NC1CCCN(C(=O)NCc2cc[nH]n2)C1 (stereo unspecified) the screen gave LiHisRS: 18.67%; TcHisRS: -0.3774%; PfKRS1: 0.9929%; Leishmania in macrophages: 13.64%.
With O=C(O)C(F)(F)F.O=C(O)C(F)(F)F.O=C(O)C(F)(F)F.[H][C@@]12C[C@@H](OCc3cccc(C)n3)CN1CCN(c1ncccn1)C2 the screen gave Leishmania in macrophages: 14.1%.
With O=C(CN1CCC(c2nnc(C(F)(F)F)o2)CC1)NCc1ccccc1 the screen gave LiHisRS: 6.667%; TcHisRS: 1.587%; PfKRS1: 1.805%; Leishmania in macrophages: -15.95%.
With CC(C)c1nc(CNc2nccc(CCC(F)(F)F)n2)cs1 the screen gave LiHisRS: 14.14%; TcHisRS: 13.37%; PfKRS1: 3.923%; Leishmania in macrophages: 41.63%.

From ChEMBL document CHEMBL3988442, “University of Dundee, Small-Polar-MMV Screening Library” (2021).